These are yes or no findings as the source states them, for the method shown. In cells and extracts the contact can be indirect.
Target: VSV-G-tagged AlgGPa (Pseudomonas aeruginosa PAO1) (UniProt Q51371)
Assay: co-IP

Sequences of proteins named here, by UniProt entry; tags and fusion partners are left off. Residues count along the entry.
UniProt Q51371, residues 36-543: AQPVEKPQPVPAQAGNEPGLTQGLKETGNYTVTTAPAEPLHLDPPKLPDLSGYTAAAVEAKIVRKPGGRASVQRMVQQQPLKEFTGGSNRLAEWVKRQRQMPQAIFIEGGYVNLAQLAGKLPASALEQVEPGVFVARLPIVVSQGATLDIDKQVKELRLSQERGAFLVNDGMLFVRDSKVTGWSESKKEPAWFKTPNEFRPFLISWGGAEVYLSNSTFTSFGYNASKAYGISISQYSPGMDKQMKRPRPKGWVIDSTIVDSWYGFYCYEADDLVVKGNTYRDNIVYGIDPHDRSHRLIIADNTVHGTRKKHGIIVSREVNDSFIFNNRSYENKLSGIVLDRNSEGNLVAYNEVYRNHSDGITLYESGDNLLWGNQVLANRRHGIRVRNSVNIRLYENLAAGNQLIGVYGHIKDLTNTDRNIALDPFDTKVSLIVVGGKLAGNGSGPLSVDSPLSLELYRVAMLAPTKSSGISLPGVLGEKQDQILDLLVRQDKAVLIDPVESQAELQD

B1: AlgKPa (protein, UniProt P96956 28-475)
chain: CAGLPDQRLAQEALERGDLATAQSNYQALAAMGYADAQVGLADMQVASGDSAQQAKAEKLYREAAQTSPRARARLGKWLAAKPGASDAEHREAERLLSQAFEQGEDSALVPLIVLYLQYPQSWPEIDPQQRIDQWRARGLPQADLAQIILYRTQGTYAQHLGEIEQVCQRWLRRMDVCWYELATVYQMQGNAEKQKVLLEQLRAAYKAGRVPGERVDSVAGVLADGELGQPDPQTAQALLEEIAPSYPAAWVSLAKLLYDYPDQGDLEKMLGYLKNAQDAAQPRAELLLGRLYYDGKWAPQDPRKAERHLLKAAASEPQANYYLGQIYRRGFLGKVYPQKAVDHLILAARAGQASADMALAQLWSQGRGIQPNRVNAYVFGQLAVQQQVPQASDLLGQIEAQLPPAERSQAQQLLKREQQSRGNNWQATVSLLQSQDSPINEEEPESL
- binding: no binding

From PMC9734138, “Structure of the AlgKX modification and secretion complex required for alginate production and biofilm attachment in Pseudomonas aeruginosa” (Nature Communications, 2022)
